Laboratory results taken from the supplement of paper PMC8728848.
This is one part of the list.

Columns and labels:
Test in all cases: glycan array binding signal (z-score within array); higher = stronger binding
Settings in all cases: glycan notation: IUPAC condensed, linker removed
Fuc(a1-2)Gal = molecular target: Fuc(a1-2)Gal
Outline: (§1)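 Negative Z-scores can be read as non-binding. The Z-score is calculated within each array and then averaged across arrays of one protein sequence at different concentrations or buffers and across linkers. Arrays, 3228 in all, were curated from the Consortium for Functional Glycomics database and kept only where the protein sequence was available.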

Fuc(a1-2)Gal(b1-3)GalNAc = molecular target: Fuc(a1-2)Gal(b1-3)GalNAc
Outline: as §1

[1] = molecular target: Fuc(a1-2)Gal(b1-3)GalNAc(a1-3)[Fuc(a1-2)]Gal(b1-4)Glc
Outline: as §1

[2] = molecular target: Fuc(a1-2)Gal(b1-3)GalNAc(a1-3)[Fuc(a1-2)]Gal(b1-4)GlcNAc
Outline: as §1

[3] = molecular target: Fuc(a1-2)Gal(b1-3)GalNAc(b1-3)Gal
Outline: as §1

[4] = molecular target: Fuc(a1-2)Gal(b1-3)GalNAc(b1-3)Gal(a1-4)Gal(b1-4)Glc
Outline: as §1

[5] = molecular target: Fuc(a1-2)Gal(b1-3)GalNAc(b1-4)[Neu5Ac(a2-3)]Gal(b1-4)Glc
Outline: as §1

Fuc(a1-2)Gal(b1-3)GlcNAc = molecular target: Fuc(a1-2)Gal(b1-3)GlcNAc
Outline: as §1

[6] = molecular target: Fuc(a1-2)Gal(b1-3)GlcNAc(b1-2)Man(a1-3)[Fuc(a1-2)Gal(b1-3)GlcNAc(b1-2)Man(a1-6)]Man(b1-4)GlcNAc(b1-4)GlcNAc
Outline: as §1

[7] = molecular target: Fuc(a1-2)Gal(b1-3)GlcNAc(b1-3)Gal(b1-4)Glc
Outline: as §1

[8] = molecular target: Fuc(a1-2)Gal(b1-3)GlcNAc(b1-3)[Fuc(a1-3)[Gal(b1-4)]GlcNAc(b1-6)]Gal(b1-4)Glc
Outline: as §1

[9] = molecular target: Fuc(a1-2)Gal(b1-3)[Fuc(a1-4)]GlcNAc
Outline: as §1

[10] = molecular target: Fuc(a1-2)Gal(b1-3)[Fuc(a1-4)]GlcNAc(b1-2)Man(a1-3)[Fuc(a1-2)Gal(b1-3)[Fuc(a1-4)]GlcNAc(b1-2)Man(a1-6)]Man(b1-4)GlcNAc(b1-4)GlcNAc
Outline: as §1

[11] = molecular target: Fuc(a1-2)Gal(b1-3)[Fuc(a1-4)]GlcNAc(b1-3)[Fuc(a1-3)[Gal(b1-4)]GlcNAc(b1-6)]Gal(b1-4)Glc
Outline: as §1

[12] = molecular target: Fuc(a1-2)Gal(b1-3)[Fuc(a1-4)]GlcNAc(b1-3)[Gal(b1-4)GlcNAc(b1-6)]Gal(b1-4)Glc
Outline: as §1

Fuc(a1-2)Gal(b1-4)Glc = molecular target: Fuc(a1-2)Gal(b1-4)Glc
Outline: as §1

Fuc(a1-2)Gal(b1-4)Glc6S = molecular target: Fuc(a1-2)Gal(b1-4)Glc6S
Outline: as §1

Fuc(a1-2)Gal(b1-4)GlcNAc = molecular target: Fuc(a1-2)Gal(b1-4)GlcNAc
Outline: as §1

[13] = molecular target: Fuc(a1-2)Gal(b1-4)GlcNAc(b1-2)Man(a1-3)[Fuc(a1-2)Gal(b1-4)GlcNAc(b1-2)Man(a1-6)]Man(b1-4)GlcNAc(b1-4)GlcNAc
Outline: as §1

[14] = molecular target: Fuc(a1-2)Gal(b1-4)GlcNAc(b1-3)Gal(b1-4)GlcNAc
Outline: as §1

[15] = molecular target: Fuc(a1-2)Gal(b1-4)GlcNAc(b1-3)Gal(b1-4)GlcNAc(b1-3)Gal(b1-4)GlcNAc
Outline: as §1

[16] = molecular target: Fuc(a1-2)Gal(b1-4)GlcNAc(b1-3)GalNAc
Outline: as §1

[17] = molecular target: Fuc(a1-2)Gal(b1-4)GlcNAc6S
Outline: as §1

[18] = molecular target: Fuc(a1-2)Gal(b1-4)[Fuc(a1-3)]GlcNAc
Outline: as §1

[19] = molecular target: Fuc(a1-2)Gal(b1-4)[Fuc(a1-3)]GlcNAc(b1-2)Man(a1-3)[Fuc(a1-2)Gal(b1-4)[Fuc(a1-3)]GlcNAc(b1-2)Man(a1-6)]Man(b1-4)GlcNAc(b1-4)GlcNAc
Outline: as §1

[20] = molecular target: Fuc(a1-2)Gal(b1-4)[Fuc(a1-3)]GlcNAc(b1-3)Gal(b1-4)[Fuc(a1-3)]GlcNAc
Outline: as §1

[21] = molecular target: Fuc(a1-2)Gal(b1-4)[Fuc(a1-3)]GlcNAc(b1-3)Gal(b1-4)[Fuc(a1-3)]GlcNAc(b1-3)Gal(b1-4)[Fuc(a1-3)]GlcNAc
Outline: as §1

Fuc(a1-2)Gal6S(b1-4)Glc = molecular target: Fuc(a1-2)Gal6S(b1-4)Glc
Outline: as §1

[22] = molecular target: Fuc(a1-2)Gal6S(b1-4)Glc6S
Outline: as §1

[23] = molecular target: Fuc(a1-2)Gal6S(b1-4)GlcNAc
Outline: as §1

B1: Flo10 (Saccharomyces cerevisiae), P36170 (protein)
chain: MPVAARYIFLTGLFLLSVANVALGTTEACLPAGEKKNGMTINFYQYSLKDSSTYSNPSYMAYGYADAEKLGSVSGQTKLSIDYSIPCNGASDTCACSDDDATEYSASQVVPVKRGVKLCSDNTTLSSKTEKRENDDCDQGAAYWSSDLFGFYTTPTNVTVEMTGYFLPPKTGTYTFGFATVDDSAILSVGGNVAFECCKQEQPPITSTDFTINGIKPWNADAPTDIKGSTYMYAGYYYPIKIVYSNAVSWGTLPVSVVLPDGTEVNDDFEGYVFSFDDNATQAHCSVPNPAEHARTCVSSATSSWSSSEVCTECTETESTSYVTPYVTSSSWSSSEVCTECTETESTSTSTPYVTSSSSSSSEVCTECTETESTSYVTPYVSSSTAAANYTSSFSSSSEVCTECTETESTSTSTPYVTSSSWSSSEVCTECTETESTSYVTPYVSSSTAAANYTSSFSSSSEVCTECTETESTSTSTPYVTSSSSSSSEVCTECTETESTSYVTPYVSSSTAAANYTSSFSSSSEVCTECTETESTSTSTPYVTSSSWSSSEVCTECTETESTSYVTPYVSSSTAAANYTSSFSSSSEVCTECTETESTSTSTPYATSSTGTATSFTASTSNTMTSLVQTDTTVSFSLSSTVSEHTNAPTSSVESNASTFISSNKGSVKSYVTSSIHSITPMYPSNQTVTSSSVVSTPITSESSESSASVTILPSTITSEFKPSTMKTKVVSISSSPTNLITSYDTTSKDSTVGSSTSSVSLISSISLPSSYSASSEQIFHSSIVSSNGQALTSFSSTKVSSSESSESHRTSPTTSSESGIKSSGVEIESTSTSSFSFHETSTASTSVQISSQFVTPSSPISTVAPRSTGLNSQTESTNSSKETMSSENSASVMPSSSATSPKTGKVTSDETSSGFSRDRTTVYRMTSETPSTNEQTTLITVSSCESNSCSNTVSSAVVSTATTTINGITTEYTTWCPLSATELTTVSKLESEEKTTLITVTSCESGVCSETASPAIVSTATATVNDVVTVYSTWSPQATNKLAVSSDIENSASKASFVSEAAETKSISRNNNFVPTSGTTSIETHTTTTSNASENSDNVSASEAVSSKSVTNPVLISVSQQPRGTPASSMIGSSTASLEMSSYLGIANHLLTNSGISIFIASLLLAIV
- glycan array binding signal (z-score) (Fuc(a1-2)Gal): -0.687
- glycan array binding signal (z-score) (Fuc(a1-2)Gal(b1-3)GalNAc): 0.146
- glycan array binding signal (z-score) [1]: -0.704
- glycan array binding signal (z-score) [2]: 0.044
- glycan array binding signal (z-score) [3]: 1.8
- glycan array binding signal (z-score) [4]: -0.532
- glycan array binding signal (z-score) [5]: 0.374
- glycan array binding signal (z-score) (Fuc(a1-2)Gal(b1-3)GlcNAc): -0.227
- glycan array binding signal (z-score) [6]: -0.597
- glycan array binding signal (z-score) [7]: -0.244
- glycan array binding signal (z-score) [8]: 2.09
- glycan array binding signal (z-score) [9]: 1.07
- glycan array binding signal (z-score) [10]: -0.673
- glycan array binding signal (z-score) [11]: -0.579
- glycan array binding signal (z-score) [12]: 0.024
- glycan array binding signal (z-score) (Fuc(a1-2)Gal(b1-4)Glc): -0.758
- glycan array binding signal (z-score) (Fuc(a1-2)Gal(b1-4)Glc6S): 1.91
- glycan array binding signal (z-score) (Fuc(a1-2)Gal(b1-4)GlcNAc): 0.201
- glycan array binding signal (z-score) [13]: -0.333
- glycan array binding signal (z-score) [14]: 0.244
- glycan array binding signal (z-score) [15]: 2.06
- glycan array binding signal (z-score) [16]: -0.457
- glycan array binding signal (z-score) [17]: -0.325
- glycan array binding signal (z-score) [18]: 0.415
- glycan array binding signal (z-score) [19]: -0.165
- glycan array binding signal (z-score) [20]: -0.556
- glycan array binding signal (z-score) [21]: 0.134
- glycan array binding signal (z-score) (Fuc(a1-2)Gal6S(b1-4)Glc): 0.654
- glycan array binding signal (z-score) [22]: -0.28
- glycan array binding signal (z-score) [23]: 0.331
